The target of this experiment is cYFP-AtSKP1 (Arabidopsis thaliana) (UniProt Q39255). Put plainly: split reporter; ratiometric BiFC (rBiFC) in N. benthamiana leaves; both partners N-terminally fused to split YFP in one 2in1 vector with a constitutive RFP cassette; YFP/RFP ratio in the nucleus.

Sequences of proteins named here, by UniProt entry; tags and fusion partners are left off.
UniProt Q39255: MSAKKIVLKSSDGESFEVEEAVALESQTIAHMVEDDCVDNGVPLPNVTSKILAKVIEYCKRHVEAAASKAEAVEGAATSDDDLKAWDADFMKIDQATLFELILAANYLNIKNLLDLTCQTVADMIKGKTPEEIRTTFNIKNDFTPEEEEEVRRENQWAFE

These are yes or no findings as the source states them, for the method shown. In cells and extracts the contact can be indirect. Some results given as binding are weak or reduced against the parent protein; the word gives no strength. Tags and fused reporters may be left off the sequences shown.

B1: nYFP-AtMAX2 (protein, UniProt Q9SIM9 1-693)
chain: MASTTLSDLPDVILSTISSLVSDSRARNSLSLVSHKFLALERSTRSHLTIRGNARDLSLVPDCFRSISHLDLSFLSPWGHTLLASLPIDHQNLLALRLKFCFPFVESLNVYTRSPSSLELLLPQWPRIRHIKLLRWHQRASQIPTGGDFVPIFEHCGGFLESLDLSNFYHWTEDLPPVLLRYADVAARLTRLDLLTASFTEGYKSSEIVSITKSCPNLKTFRVACTFDPRYFEFVGDETLSAVATSSPKLTLLHMVDTASLANPRAIPGTEAGDSAVTAGTLIEVFSGLPNLEELVLDVGKDVKHSGVALEALNSKCKKLRVLKLGQFQGVCSATEWRRLDGVALCGGLQSLSIKNSGDLTDMGLVAIGRGCCKLTTFEIQGCENVTVDGLRTMVSLRSKTLTDVRISCCKNLDTAASLKAIEPICDRIKRLHIDCVWSGSEDEEVEGRVETSEADHEEEDDGYERSQKRCKYSFEEEHCSTSDVNGFCSEDRVWEKLEYLSLWINVGEFLTPLPMTGLDDCPNLEEIRIKIEGDCRGKRRPAEPEFGLSCLALYPKLSKMQLDCGDTIGFALTAPPMQMDLSLWERFFLTGIGSLSLSELDYWPPQDRDVNQRSLSLPGAGLLQECLTLRKLFIHGTAHEHFMNFLLRIPNLRDVQLRADYYPAPENDMSTEMRVGSCSRFEDQLNSRNIID
For B1, the binding entry is recorded as “binds”.

The record behind these values is paper PMC11085264.
